# Reference: publication PMC12036814 (Angewandte Chemie (International Ed. in English), 2025)
# Tests used:
# [1] = cited from earlier work
# [2] = tested on: mitochondrial ribosomal subunits; design: dose or concentration left out as unconfirmed; details: […] μM, 1 h, 37 °C, HEK-293
# Experimental: incubated in a thermoshaker (600 rpm, 16 h, 37 °C). The digest was stopped by adding 10 μL formic
# acid (FA) and vortexing followed by centrifugation (12,000 ×g, 3 min, room temperature). 50 mg
# SepPak C18 columns (Waters, Milford, USA, Cat# WAT054960) were equilibrated by gravity flow two
# times with 1 mL acetonitrile and three times with 1 mL aqueous 0.1% trifluoroacetic acid (TFA) solution.
# Subsequently, the samples were loaded by gravity flow, washed three times with 1 mL aqueous 0.1%
# TFA solution and once with 0.5 mL aqueous 0.5% formic acid (F A) solution. Elution of peptides into
# new 2.0 mL Protein LoBind Eppendorf tubes was performed by two times addition of 250 μL elution
# buffer (80% acetonitrile, 0.5% FA) by gravity flow followed by 250 μL elution buffer by vacuum flow
# until all liquid was eluted from the column. The eluates were lyophilized. Before MS measurement the
# (brief centrifugation after each step).
# Thermal protein profiling (TPP)
# The experiment was performed similarly to TPP-TR experiments described by Franken et al. with minor
# modifications.5 HEK293 cells were grown in 8 T175 flasks to approx. 80-90% confluency. Per replicate
# volume of 0.1 N HCl as vehicle control. Per condition two replicates were used, leading to a total of 8
# T175 flasks. The cells were washed with PBS, detached with accutase, the two flask per replicate […]
smiles,measurement,setting,value
O=C(O)c1cn(C2CC2)c2cc(N3CCNCC3)c(F)cc2c1=O [Ciprofloxacin],peak plasma levels,[1]; concentration resembling peak plasma levels,~75 µM
same,regular plasma levels,[1]; concentration resembling regular plasma levels,~7.5 µM
same,thermal stability of mitochondrial ribosomal subunits,[2],destabilized
